Reference: PubChem BioAssay AID504444 (National Center for Advancing Translational Sciences (NCATS), 2011)
About 7,500 (2.1%) of roughly 360,000 compounds were called active. The shares of active, inactive and inconclusive entries below differ from those in the screen. The call rests on the fitted dose curve; in most records, active means well fitted inhibition curve with a large enough effect; inconclusive means small, poorly fitted or top-dose-only effect, or effect the other way; inactive means flat fitted curve, though single readings scatter. Potencies of inconclusive entries are doubtful fits and often do not repeat. Where a structure was tested more than once in an assay, its records may differ in their call.

Test: Nrf2 qHTS screen for inhibitors; further: nearly all actives have a fitted effect of over 60% in size
Settings: A549 ARE-Fluc reporter, luciferase luminescence, 18-24 h; activity change, negative = inhibition: at 46 µM (top of the series)
Method in brief: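 Nrf2 function is reported as luminescence of an ARE-controlled luciferase in A549 cells. Compounds were tested at several concentrations, and a CellTiter-Fluor read on the same wells flagged cytotoxicity.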
On the % scale 0 is the no-effect control and ±100 the full control effect; potency means the concentration at half of the fitted maximal effect.

SMILES	Potency	activity change, negative = inhibition
CN(Cc1ccco1)C(=O)Cn1c(=O)oc2cc(S(=O)(=O)NCc3ccccc3)ccc21	inconclusive: 20.6 µM [falling, partial curve, poor fit]	
Cc1ccc(CNC(=O)C2CCC(=O)N(CCc3ccc(Cl)cc3)C2)cc1 (stereo not given)	inconclusive: 25.9 µM [activator, partial curve, poor fit]	
Cc1ncc(C[n+]2csc(CCO)c2C)c(N)n1	active: 14.6 µM	
Nc1ccc(-c2nc3ccc(C(=O)O)cc3s2)cc1	inconclusive: 0.231 µM [activator, full curve, poor fit]	
Cc1c(Cl)cccc1NC(=O)C1CCCN(C(=O)c2cnn(-c3ccccc3)c2-n2cccc2)C1 (stereo not given)	inconclusive: 29.1 µM [falling, single point]	
CCOC(=O)c1c(NC(=O)CN2C(=O)NC3(CCCCC3C)C2=O)sc(C)c1CC (stereo not given)	inconclusive: 20.6 µM [falling, single point]	
COc1ccc([N+](=O)[O-])cc1COc1ccc2c(-c3ccccc3)cc(=O)oc2c1	inconclusive: 4.11 µM [activator, full curve, poor fit]	
CCCCN(C(=O)CCC(=O)Nc1cc(C)on1)C(C(=O)NC(C)(C)C)c1ccccc1Cl (stereo not given)	inconclusive: 23.1 µM [activator, partial curve]	
N/C(=N\c1nc2ccccc2o1)NC(=O)c1ccc(F)cc1	inconclusive: 1.03 µM [activator, partial curve, poor fit]	
O=C(Cn1c(C(F)(F)F)nc2ccccc21)N=Nc1c(O)[nH]c2ccc(Br)cc12	inconclusive: 4.61 µM [activator, partial curve]	
O=C1N[C@@H](Cc2c[nH]c3ccccc23)COC(=O)[C@@H](Cc2ccc(F)cc2)CC/C=C/C[C@@H]1CC(=O)N(CCO)Cc1ccccc1	inconclusive: 29.1 µM [falling, single point]	
CCCCOc1ccc(N2CC(C(=O)NCCc3ccc(OC)c(OC)c3)CC2=O)cc1 (stereo not given)		inactive: -2.01%
Fc1ccc2cc(CCO[C@H]3CCCCO3)ncc2c1		inactive: 6.7%
Cc1ccc(-n2cc(C(=O)c3ccc(F)cc3)nn2)cc1Cl	inconclusive: 1.16 µM [activator, full curve]	
COc1cc2c(cc1NC(=O)C(C)Sc1cccc[n+]1[O-])oc1ccccc12 (stereo not given)	inconclusive: 29.1 µM [activator, single point]	
CCCn1c(N)c(C(=O)CSc2n[nH]c(-c3ccccc3F)n2)c(=O)n(C)c1=O	inconclusive: 14.6 µM [falling, partial curve]	
CC(=O)c1ccc(S(=O)(=O)N2CCN(C(=O)c3ccc(COc4ccccc4)o3)CC2)cc1	inconclusive: 29.1 µM [falling, single point]	
O=C(NC1CCc2ccccc21)c1cc(COc2c(F)cccc2F)on1 (stereo not given)	inconclusive: 18.4 µM [activator, partial curve]	
OC(CSc1c(Cl)cccc1Cl)CN1CCN(c2ccc(F)cc2)CC1 (stereo not given)	inconclusive: 25.9 µM [falling, partial curve, poor fit]	
C[C@H]1CN([C@@H](C)CO)C(=O)Cc2cc(NC(=O)CCC(F)(F)F)ccc2O[C@H]1CN(C)Cc1ccc(C(F)(F)F)cc1	inconclusive: 16.4 µM [falling, partial curve, poor fit]	

Rewritten bar-delimited: part of the list above
SMILES | Potency | activity change, negative = inhibition
Cc1c(Cl)cccc1NC(=O)C1CCCN(C(=O)c2cnn(-c3ccccc3)c2-n2cccc2)C1 (stereo not given) | inconclusive: 29.1 µM [falling, single point] | 
CCOC(=O)c1c(NC(=O)CN2C(=O)NC3(CCCCC3C)C2=O)sc(C)c1CC (stereo not given) | inconclusive: 20.6 µM [falling, single point] | 
COc1ccc([N+](=O)[O-])cc1COc1ccc2c(-c3ccccc3)cc(=O)oc2c1 | inconclusive: 4.11 µM [activator, full curve, poor fit] | 

More records follow.

SMILES	Potency	activity change, negative = inhibition
COc1cccc2nc3cc(C)c(C)cc3nc12	inconclusive: 0.58 µM [activator, full curve]	
Cc1ccc(C)c2[nH]c(=O)c(CN(Cc3ccco3)C(=O)Nc3ccccc3)cc12	inconclusive: 16.4 µM [falling, partial curve, poor fit]	
O=C(/C=C/c1ccco1)OCC(=O)c1ccc(OC(F)F)cc1		inactive: 17.9%
CC12CCC=CC1C(c1ccc3ccccc3c1)N(Cc1ccccc1)C2=O (stereo not given)	inconclusive: 23.1 µM [falling, single point]	
Cc1[nH]c2ccccc2c1/C=C/C(=O)c1ccncc1	inconclusive: 23.1 µM [falling, single point]	
CCOc1ccc(C(=O)Nc2cccc(NC(=O)c3cccs3)c2)cc1[N+](=O)[O-]	inconclusive: 14.6 µM [falling, partial curve]	
COc1ccc(C(=O)NCC(=O)Nc2ccc(F)cc2)cc1OC	inconclusive: 29.1 µM [falling, single point]	
O=C(Nc1ccc2c(c1)OCO2)C1CC(c2ccccc2O)=NO1 (stereo not given)	inconclusive: 18.4 µM [falling, single point]	
CCN(CC(=O)Nc1ccccc1C(F)(F)F)C(=O)c1ccccc1Cc1ccccc1	inconclusive: 25.9 µM [falling, single point]	
CCc1noc(C)c1C(=O)Nc1nc(-c2ccc(OC)c(OC)c2)cs1	inconclusive: 16.4 µM [falling, partial curve]	
COc1ccc2cc(S(=O)(=O)NC3CC(C)(C)NC(C)(C)C3)ccc2c1	inconclusive: 2.59 µM [activator, partial curve, poor fit]	
CCCCn1c(=O)c(CCC(=O)OC(C)C(=O)Nc2cccc(Cl)c2Cl)nc2ccccc21 (stereo not given)	inconclusive: 2.91 µM [activator, single point]	
Oc1cccc(NC(=S)Nc2ccc(SC(F)F)cc2)c1	inconclusive: 18.4 µM [falling, partial curve, poor fit]	
Cc1ccc2c(c1)N(C(=O)CCC(=O)Nc1ccc(F)cc1F)CC(C)O2 (stereo not given)	inconclusive: 32.6 µM [falling, single point]	
O=C(Nc1c(Cl)cc([N+](=O)[O-])cc1Cl)c1cc(Cl)cc(Cl)c1O	inconclusive: 29.1 µM [falling, single point]	
CCOc1ccc(NC(=O)COc2ccc(S(=O)(=O)N3CCOCC3)cc2)cc1	inconclusive: 25.9 µM [falling, single point]	
CCCC(=O)NC(c1ccco1)c1cc([N+](=O)[O-])c2cccnc2c1O (stereo not given)	inconclusive: 20.6 µM [falling, single point]	
COc1cc(C(=O)c2cocc2C(=O)c2ccc3c(c2)OCO3)cc(OC)c1OC		inactive: -5.36%
O=C(CN(Cc1cccs1)S(=O)(=O)c1ccc(S(=O)(=O)NC2CCCCC2)cc1)Nc1ccccc1	inconclusive: 23.1 µM [falling, single point]	
CCOC(=O)N1CCN(S(=O)(=O)c2ccc(C(=O)NNc3nc4c(C)cccc4s3)cc2)CC1	inconclusive: 16.4 µM [falling, single point]	

SMILES	Potency	activity change, negative = inhibition
CCN(CC)S(=O)(=O)c1ccc(NC(=O)c2ccc3c(=O)n4c(nc3c2)CCCCC4)cc1	active: 9.2 µM	
O=C(Oc1cccnc1)c1ccc(Cl)c(Cl)c1	inconclusive: 23.1 µM [activator, partial curve]	
Cc1ccc2nc(NC(=O)COC(=O)c3ccccn3)sc2c1	inconclusive: 8.2 µM [activator, partial curve]	
COc1ccc(S(=O)(=O)N2CCN(c3ccc(C)cc3C)CC2)cc1OC	inconclusive: 23.1 µM [falling, partial curve, poor fit]	
O=C(CSc1nnc(-c2ccc(F)cc2)o1)Nc1ccc(S(=O)(=O)N2CCCC2)cc1		inactive: 13.4%
CC[C@]1(C(=O)OC)[C@H]2C(=O)N(Cc3ccccc3)C(=O)[C@H]2[C@H]2CN=C(SCc3ccccc3)N21	inconclusive: 29.1 µM [falling, partial curve, poor fit]	
COCCC1CCCCN1C(=O)c1cc(COc2ccc(C)nc2)on1 (stereo not given)	inconclusive: 18.4 µM [falling, partial curve]	
Cc1cc(S(=O)(=O)Nc2cc3c(cc2NCc2ccccc2)n(C)c(=O)n3C)ccc1F	inconclusive: 16.4 µM [falling, partial curve, poor fit]	
Cc1ccc(C(=O)Nc2ccc3c(c2)nc(CCNC(=O)c2ccco2)n3C)cc1	inconclusive: 6.51 µM [activator, partial curve, poor fit]	
C/C(=N\NC(=O)Cn1c(-c2ccccn2)nc2ccccc21)c1cccc(O)c1	inconclusive: 16.4 µM [falling, partial curve, poor fit]	
O=C(c1ccccc1-c1nc(-c2ccccc2)no1)N1CCCC1	inconclusive: 29.1 µM [activator, single point]	
CN(C)C=Nc1ccc2nn(-c3ccccc3)nc2c1	inconclusive: 7.31 µM [activator, partial curve]	
Cc1sc(N/N=C/c2cccnc2)nc1-c1ccccc1	inconclusive: 0.366 µM [falling, full curve, poor fit]	
CCNc1cc2n(c(=O)n1)CCc1cc(OC)c(OC)cc1-2	inconclusive: 0.517 µM [falling, full curve, poor fit]	
CC(=O)Nc1ccc(Nc2ncnc3c2cnn3-c2ccc(C)cc2C)cc1	inconclusive: 18.4 µM [falling, partial curve]	
CCNC(=S)N/N=C/c1ccc(OCCOc2ccccc2C)cc1	inconclusive: 13 µM [falling, partial curve, poor fit]	
Cc1cc(C)c(S(=O)(=O)Nc2ccc(O)cc2)cc1C	inconclusive: 10.3 µM [falling, partial curve, poor fit]	
O=C(O)c1ccc(N/N=C/C=C/c2ccccc2)cc1	inconclusive: 0.92 µM [activator, full curve]	
Cc1nc(SCC(=O)NC2CCCC2)[nH]c(=O)c1Cc1ccccc1	inconclusive: 18.4 µM [falling, partial curve, poor fit]	
FC(F)(F)c1cccc(NC(=S)NCC(c2cccnc2)N2CCOCC2)c1 (stereo not given)	inconclusive: 0.0058 µM [activator, full curve, poor fit]	
